From paper PMC7753216 come the findings set out here.

Chains of the proteins cited; added tags and fusions are not shown. Lines headed by an entry give the natural chain unless they say otherwise; changes in a name come on top.
UniProt Q5VTR2: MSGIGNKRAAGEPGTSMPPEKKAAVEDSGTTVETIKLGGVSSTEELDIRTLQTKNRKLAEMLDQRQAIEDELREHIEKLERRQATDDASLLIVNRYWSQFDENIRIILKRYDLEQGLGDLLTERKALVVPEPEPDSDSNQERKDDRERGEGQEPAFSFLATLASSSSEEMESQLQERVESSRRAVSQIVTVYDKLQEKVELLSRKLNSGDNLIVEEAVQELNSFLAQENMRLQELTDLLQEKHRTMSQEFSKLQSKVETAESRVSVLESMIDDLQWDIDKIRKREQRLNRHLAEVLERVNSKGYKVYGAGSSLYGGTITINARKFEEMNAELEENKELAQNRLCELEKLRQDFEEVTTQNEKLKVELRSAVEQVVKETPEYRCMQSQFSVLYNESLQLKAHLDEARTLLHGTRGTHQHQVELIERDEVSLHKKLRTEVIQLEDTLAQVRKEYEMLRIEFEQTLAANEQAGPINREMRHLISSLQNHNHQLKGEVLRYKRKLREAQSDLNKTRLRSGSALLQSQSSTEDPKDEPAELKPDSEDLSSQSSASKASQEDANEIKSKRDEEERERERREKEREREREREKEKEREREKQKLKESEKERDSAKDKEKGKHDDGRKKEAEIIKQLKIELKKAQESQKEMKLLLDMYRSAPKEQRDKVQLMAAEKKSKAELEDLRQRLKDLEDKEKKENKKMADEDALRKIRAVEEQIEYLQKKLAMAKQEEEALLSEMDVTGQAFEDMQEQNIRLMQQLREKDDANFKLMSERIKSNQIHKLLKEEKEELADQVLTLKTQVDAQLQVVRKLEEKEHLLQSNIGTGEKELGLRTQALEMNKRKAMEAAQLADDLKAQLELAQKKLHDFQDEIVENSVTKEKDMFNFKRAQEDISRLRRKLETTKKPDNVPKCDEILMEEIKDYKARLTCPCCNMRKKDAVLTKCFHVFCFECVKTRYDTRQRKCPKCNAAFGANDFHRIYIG
UniProt O95863: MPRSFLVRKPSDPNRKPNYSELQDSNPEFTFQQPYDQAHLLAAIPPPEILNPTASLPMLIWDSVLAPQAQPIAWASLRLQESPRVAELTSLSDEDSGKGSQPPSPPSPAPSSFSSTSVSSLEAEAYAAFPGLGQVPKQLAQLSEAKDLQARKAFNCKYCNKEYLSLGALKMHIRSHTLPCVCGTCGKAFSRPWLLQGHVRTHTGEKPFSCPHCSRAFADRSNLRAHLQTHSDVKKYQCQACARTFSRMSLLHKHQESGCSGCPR
UniProt Q96KQ7: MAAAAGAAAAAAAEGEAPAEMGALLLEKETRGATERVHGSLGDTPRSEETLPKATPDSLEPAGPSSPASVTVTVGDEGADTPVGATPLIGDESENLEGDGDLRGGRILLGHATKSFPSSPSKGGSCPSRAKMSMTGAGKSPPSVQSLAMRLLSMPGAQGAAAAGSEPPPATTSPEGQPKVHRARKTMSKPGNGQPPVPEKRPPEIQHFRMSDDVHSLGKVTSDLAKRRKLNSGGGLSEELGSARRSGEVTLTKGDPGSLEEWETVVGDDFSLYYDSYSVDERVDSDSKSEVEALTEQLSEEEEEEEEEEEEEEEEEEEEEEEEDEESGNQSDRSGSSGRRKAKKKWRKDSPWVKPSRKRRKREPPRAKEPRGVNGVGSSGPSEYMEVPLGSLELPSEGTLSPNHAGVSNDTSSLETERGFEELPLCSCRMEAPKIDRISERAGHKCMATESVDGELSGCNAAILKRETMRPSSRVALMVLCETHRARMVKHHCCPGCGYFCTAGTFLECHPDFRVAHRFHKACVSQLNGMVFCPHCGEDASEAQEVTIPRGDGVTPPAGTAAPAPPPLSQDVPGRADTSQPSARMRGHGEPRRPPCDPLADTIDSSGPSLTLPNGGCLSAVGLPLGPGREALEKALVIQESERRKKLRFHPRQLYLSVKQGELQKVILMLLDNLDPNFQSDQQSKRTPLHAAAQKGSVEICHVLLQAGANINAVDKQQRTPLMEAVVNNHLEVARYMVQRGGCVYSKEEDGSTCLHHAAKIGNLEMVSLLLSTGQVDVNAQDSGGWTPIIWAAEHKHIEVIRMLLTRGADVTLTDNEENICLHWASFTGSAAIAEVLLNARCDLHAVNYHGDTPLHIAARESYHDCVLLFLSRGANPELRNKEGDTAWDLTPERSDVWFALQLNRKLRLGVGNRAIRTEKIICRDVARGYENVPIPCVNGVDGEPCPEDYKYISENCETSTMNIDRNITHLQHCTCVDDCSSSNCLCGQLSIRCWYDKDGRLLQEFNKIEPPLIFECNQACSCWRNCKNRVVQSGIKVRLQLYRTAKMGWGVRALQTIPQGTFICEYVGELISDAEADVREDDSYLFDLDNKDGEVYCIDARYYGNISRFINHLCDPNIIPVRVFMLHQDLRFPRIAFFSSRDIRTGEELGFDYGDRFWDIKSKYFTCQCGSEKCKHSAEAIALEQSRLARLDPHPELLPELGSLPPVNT

Holding throughout (assay): co-IP; proteins transiently co-expressed in 293T cells; cell extracts immunoprecipitated with Flag or HA antibodies; associated protein detected by Western blotting
(Immunoblotting shows a protein as a band on a membrane.)

The target of assay [1] is Flag-tagged RNF20 (human) (UniProt Q5VTR2).
For assay [2], the target named is HA-tagged RNF20 (human) (UniProt Q5VTR2).
Assay [3] deals with HA-tagged Snail (human) (UniProt O95863).
Assay [4] concerns the target Flag-tagged G9a (UniProt Q96KQ7).

Results are given in words; binding and its absence hold for the method and conditions named. In cells and extracts the contact can be indirect. Some entries that bind do so weakly or less than the wild type.

In the case of “C-terminal region of Snail (C-Snail; amino acids 153–264) (from UniProt O95863 153-264) (domain or fragment)”, the binding result in assay [1] is on record as “binds”.
With “Flag-tagged G9a (from UniProt Q96KQ7 1-1210)”, the binding result in assay [2] is recorded as “binds”.
Consider “Flag-tagged RNF20 (from UniProt Q5VTR2 1-975)”, for which, in assay [3], the binding result is reported as “binds”.
On to “HA-tagged RNF20 (from UniProt Q5VTR2 1-975)”, for which the binding result in assay [4] is recorded as “binds”.
Take “HA-tagged Snail (from UniProt O95863 1-264)”: the binding entry in assay [1] is listed as “binds”.
